PubChem BioAssay AID1224828 | NIAID | 2016

Aim: 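Find genes required for NF-kappaB p65 moving into the nucleus after LPS in mouse macrophages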 (primary screen)
Cells: mouse RAW264.7 G9 macrophage reporter cells (GFP-p65, Tnf promoter-mCherry)
Reagents: siRNA pool against mouse genes, 100 nM
Duration: 2 days siRNA transfection, then 40 min LPS before fixation
Challenge: LPS (Salmonella minnesota R595) at 10 ng/ml
Measurement: 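Imaged p65 nuclear translocation ratio, normalised to the plate median, converted to robust z-scores and averaged across two replicates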
Scale: p65 translocation robust z-score: higher = more nuclear NF-kappaB p65 after LPS than the plate median; nuclear/cytoplasmic p65 ratio: higher = more nuclear NF-kappaB p65
Rule for the call: 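Called active when z exceeds 3.3 or falls under -1.56 (median of Tlr4 controls), giving activity score of at least 50; no calls for control wells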
Calls: active = hit (p65 shift raised or lowered); inactive = no clear change
The whole screen tested about 17,000 reagents; this is a random part of them. 762 of them (4.5%) were called active. 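Active calls include both raised and lowered p65 entry, mostly lowered; wells with fewer than 50 cells lack a z-score.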 Raw values vary from plate to plate and are shown uncorrected.

gene symbol	PubChem SID	p65 translocation robust z-score	nuclear/cytoplasmic p65 ratio, rep 1	nuclear/cytoplasmic p65 ratio, rep 2	low cell count flag	activity call
Kcnn2	SID315477122	-1.57	1.34	1.21	enough cells to score	active
1700018B08Rik (RIKEN cDNA 1700018B08 gene)	SID315475302	1.9	1.7	1.61	enough cells to score	inactive
Klb (klotho beta)	SID315475806	0.38	1.54	1.68	enough cells to score	inactive
Gcat	SID315470477	1.22	1.72	1.68	enough cells to score	inactive
Foxn4 (forkhead box N4)	SID315477059	-0.49	1.51	1.41	enough cells to score	inactive
Atp6v0d1 (ATPase, H+ transporting, lysosomal V0 subunit D1)	SID315465563		1.31	1.59	fewer than 50 cells per well; well left out of scoring	inactive
Rint1 (RAD50 interactor 1)	SID315474624		1.45	1.19	fewer than 50 cells per well; well left out of scoring	inactive
Smc6 (structural maintenance of chromosomes 6)	SID315472921		1.12	1.14	fewer than 50 cells per well; well left out of scoring	inactive
Ubqln2 (ubiquilin 2)	SID315471262	-0.16	1.39	1.21	enough cells to score	inactive
Dhx58 (DExH-box helicase 58)	SID315475732	-0.33	1.51	1.75	enough cells to score	inactive
Gpr25 (G protein-coupled receptor 25)	SID315481835	-1.03	1.3	1.49	enough cells to score	inactive
Atoh7 (atonal bHLH transcription factor 7)	SID315471062	0.35	1.56	1.65	enough cells to score	inactive
Tnks	SID315469780		1.2	1.04	fewer than 50 cells per well; well left out of scoring	inactive
Tnks	SID315476318	0.59	1.62	1.92	enough cells to score	inactive
St6galnac5	SID315470492	-0.78	1.3	1.16	enough cells to score	inactive
Vmn1r211 (vomeronasal 1 receptor 211)	SID315477351		1.36	1.13	fewer than 50 cells per well; well left out of scoring	inactive
Faim (Fas apoptotic inhibitory molecule)	SID315470208	0.18	1.48	1.4	enough cells to score	inactive
Or5w15 (olfactory receptor family 5 subfamily W member 15)	SID315480289	-1.94	1.37	1.29	enough cells to score	active
Pepd (peptidase D)	SID315468466	0.77	1.6	1.47	enough cells to score	inactive
Cdc42ep2 (CDC42 effector protein 2)	SID315476428	-0.85	1.42	1.7	enough cells to score	inactive
Polh (polymerase (DNA directed), eta (RAD 30 related))	SID315475751	0.42	1.47	1.54	enough cells to score	inactive
Pnpla2 (patatin-like phospholipase domain containing 2)	SID315472673	1.17	1.42	1.64	enough cells to score	inactive
4932435O22Rik (RIKEN cDNA 4932435O22 gene)	SID315481172	-0.31	1.25	1.27	enough cells to score	inactive
Tnfaip1 (tumor necrosis factor, alpha-induced protein 1 (endothelial))	SID315469759	-1.39	1.35	1.3	enough cells to score	inactive
Snapc2 (small nuclear RNA activating complex, polypeptide 2)	SID315476321	-0.05	1.49	1.6	enough cells to score	inactive
Zfp341 (zinc finger protein 341)	SID315478662	-1.03	1.28	1.11	enough cells to score	inactive
Prp15 (retired record)	SID315471434	1.04	1.52	1.33	enough cells to score	inactive
Ust (uronyl-2-sulfotransferase)	SID315481671	-2.61	1.1	1.26	enough cells to score	active
Mxd3 (Max dimerization protein 3)	SID315467797	0.46	1.88	1.65	enough cells to score	inactive
Adgrg3 (adhesion G protein-coupled receptor G3)	SID315471288	0.66	1.58	1.7	enough cells to score	inactive
1700001F09Rik (RIKEN cDNA 1700001F09 gene)	SID315474339		1.8	1.27	fewer than 50 cells per well; well left out of scoring	inactive
H2ax (H2A.X variant histone)	SID315467212	0.99	1.56	1.51	enough cells to score	inactive
Or4k40 (olfactory receptor family 4 subfamily K member 40)	SID315480996	-0.1	1.62	1.39	enough cells to score	inactive
Prss8 (serine protease 8 (prostasin))	SID315475340		1.26	1.23	fewer than 50 cells per well; well left out of scoring	inactive
Traf3 (TNF receptor-associated factor 3)	SID315469817	0.61	1.54	1.64	enough cells to score	inactive
Inpp5e (inositol polyphosphate-5-phosphatase E)	SID315472103	-1.27	1.36	1.3	enough cells to score	inactive
Bmal1 (basic helix-loop-helix ARNT like 1)	SID315465512	-0.22	1.6	1.57	enough cells to score	inactive
Efna5 (ephrin A5)	SID315466451	-2.46	1.31	1.05	enough cells to score	active
Cd44 (CD44 antigen)	SID315465863	0.57	1.57	1.45	enough cells to score	inactive
Lrrc1 (leucine rich repeat containing 1)	SID315477857	-1.62	1.51	1.27	enough cells to score	active
Actl11 (actin-like 11)	SID315473189		1.24	1.22	fewer than 50 cells per well; well left out of scoring	inactive
Hey2 (hairy/enhancer-of-split related with YRPW motif 2)	SID315467188	-0.15	1.43	1.34	enough cells to score	inactive
Epor (erythropoietin receptor)	SID315466539	-0.22	1.47	1.33	enough cells to score	inactive
Cilp	SID315477861	-0.04	1.65	1.71	enough cells to score	inactive
Diaph3 (diaphanous related formin 3)	SID315471520	-0.04	1.49	1.36	enough cells to score	inactive
Cks2 (CDC28 protein kinase regulatory subunit 2)	SID315472282	0.41	1.92	1.3	enough cells to score	inactive
Fgf2os (fibroblast growth factor 2, opposite strand)	SID315481538	-0.89	1.38	1.28	enough cells to score	inactive
Slc2a2	SID315469300	0.68	1.61	1.61	enough cells to score	inactive
Taf1d	SID315475101		1.13	1.16	fewer than 50 cells per well; well left out of scoring	inactive
Bcat1 (branched chain aminotransferase 1, cytosolic)	SID315465603	0.86	1.79	1.7	enough cells to score	inactive
Pnkd (paroxysmal nonkinesiogenic dyskinesia)	SID315471635	-1.16	1.43	1.45	enough cells to score	inactive
Rtn4rl2 (reticulon 4 receptor-like 2)	SID315480845	-0.46	1.48	1.43	enough cells to score	inactive
Gapdh (glyceraldehyde-3-phosphate dehydrogenase)	SID315466827		1.3	1.06	fewer than 50 cells per well; well left out of scoring	inactive
Gapdh (glyceraldehyde-3-phosphate dehydrogenase)	SID315481963		1.1	1.31	fewer than 50 cells per well; well left out of scoring	inactive
Cd200r1l (CD200 receptor 1 like)	SID315481174	-0.62	1.46	1.41	enough cells to score	inactive
C2cd5 (C2 calcium-dependent domain containing 5)	SID315475034	1.46	1.49	1.72	enough cells to score	inactive
Nnmt (nicotinamide N-methyltransferase)	SID315468199	-0.71	1.35	1.32	enough cells to score	inactive
Eif4a2 (eukaryotic translation initiation factor 4A2)	SID315466475	-0.51	1.42	1.28	enough cells to score	inactive
Aldh16a1 (aldehyde dehydrogenase 16 family, member A1)	SID315473890		1.57	1.3	fewer than 50 cells per well; well left out of scoring	inactive

Called active (from the list above):
gene symbol	PubChem SID	p65 translocation robust z-score	nuclear/cytoplasmic p65 ratio, rep 1	nuclear/cytoplasmic p65 ratio, rep 2	low cell count flag	activity call
Kcnn2	SID315477122	-1.57	1.34	1.21	enough cells to score	active
Or5w15 (olfactory receptor family 5 subfamily W member 15)	SID315480289	-1.94	1.37	1.29	enough cells to score	active
Ust (uronyl-2-sulfotransferase)	SID315481671	-2.61	1.1	1.26	enough cells to score	active
Efna5 (ephrin A5)	SID315466451	-2.46	1.31	1.05	enough cells to score	active
Lrrc1 (leucine rich repeat containing 1)	SID315477857	-1.62	1.51	1.27	enough cells to score	active
